These are yes or no findings as the source states them, for the method shown. Binding seen in cells or lysates may run through a third protein. Some entries that bind do so weakly or less than the wild type.
Assays:
[1] = target: T1, Aralar 2 (SLC25A3; citrin) (UniProt Q9UJS0); assay: co-immunoprecipitation from cell extract, Western blot (FIG. 15)
T1 sequence (looked up): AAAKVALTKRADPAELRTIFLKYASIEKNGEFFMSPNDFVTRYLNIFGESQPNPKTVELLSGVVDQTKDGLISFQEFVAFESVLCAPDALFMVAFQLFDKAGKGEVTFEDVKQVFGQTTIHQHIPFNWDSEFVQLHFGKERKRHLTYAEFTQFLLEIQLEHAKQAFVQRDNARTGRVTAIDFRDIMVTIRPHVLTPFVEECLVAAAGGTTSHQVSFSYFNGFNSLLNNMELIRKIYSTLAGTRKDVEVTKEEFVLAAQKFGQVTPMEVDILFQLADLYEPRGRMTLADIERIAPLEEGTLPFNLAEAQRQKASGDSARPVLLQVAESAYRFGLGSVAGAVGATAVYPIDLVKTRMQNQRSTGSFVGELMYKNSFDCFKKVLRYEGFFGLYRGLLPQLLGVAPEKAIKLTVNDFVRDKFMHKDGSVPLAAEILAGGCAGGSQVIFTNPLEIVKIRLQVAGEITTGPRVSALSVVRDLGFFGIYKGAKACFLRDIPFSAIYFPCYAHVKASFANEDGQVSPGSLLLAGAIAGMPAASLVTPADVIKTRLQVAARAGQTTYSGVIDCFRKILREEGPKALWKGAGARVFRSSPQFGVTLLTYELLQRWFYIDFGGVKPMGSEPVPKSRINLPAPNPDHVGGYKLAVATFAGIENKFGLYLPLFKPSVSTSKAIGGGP

The chains behind the UniProt entries cited, without tags or fusion partners. Where a name states a change or a piece, a line headed by the entry shows the natural chain unless it says otherwise. Residues count along the entry.
UniProt P00367, residues 54-558: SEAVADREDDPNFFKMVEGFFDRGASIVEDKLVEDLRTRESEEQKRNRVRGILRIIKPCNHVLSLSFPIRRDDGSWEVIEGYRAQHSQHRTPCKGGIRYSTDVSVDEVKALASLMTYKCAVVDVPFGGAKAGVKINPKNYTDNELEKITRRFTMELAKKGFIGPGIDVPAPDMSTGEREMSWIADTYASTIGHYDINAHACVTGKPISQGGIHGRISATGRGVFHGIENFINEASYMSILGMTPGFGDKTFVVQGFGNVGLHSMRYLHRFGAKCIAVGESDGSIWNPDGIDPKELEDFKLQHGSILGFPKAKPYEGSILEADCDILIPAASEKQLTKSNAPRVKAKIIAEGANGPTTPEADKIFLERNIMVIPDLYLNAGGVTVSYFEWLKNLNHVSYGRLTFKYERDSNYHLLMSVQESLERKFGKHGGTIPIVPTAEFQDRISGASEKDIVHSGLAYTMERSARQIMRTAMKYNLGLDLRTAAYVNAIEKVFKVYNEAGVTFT
UniProt Q96DH6: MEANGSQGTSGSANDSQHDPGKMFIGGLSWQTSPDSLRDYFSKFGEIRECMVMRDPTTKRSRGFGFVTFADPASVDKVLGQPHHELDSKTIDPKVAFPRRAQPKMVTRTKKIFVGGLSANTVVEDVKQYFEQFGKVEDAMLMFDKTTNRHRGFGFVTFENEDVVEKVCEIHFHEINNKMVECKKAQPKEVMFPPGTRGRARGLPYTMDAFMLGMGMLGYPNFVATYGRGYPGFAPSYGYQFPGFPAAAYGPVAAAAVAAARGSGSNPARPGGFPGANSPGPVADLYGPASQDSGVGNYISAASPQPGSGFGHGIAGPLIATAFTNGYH
UniProt Q13148: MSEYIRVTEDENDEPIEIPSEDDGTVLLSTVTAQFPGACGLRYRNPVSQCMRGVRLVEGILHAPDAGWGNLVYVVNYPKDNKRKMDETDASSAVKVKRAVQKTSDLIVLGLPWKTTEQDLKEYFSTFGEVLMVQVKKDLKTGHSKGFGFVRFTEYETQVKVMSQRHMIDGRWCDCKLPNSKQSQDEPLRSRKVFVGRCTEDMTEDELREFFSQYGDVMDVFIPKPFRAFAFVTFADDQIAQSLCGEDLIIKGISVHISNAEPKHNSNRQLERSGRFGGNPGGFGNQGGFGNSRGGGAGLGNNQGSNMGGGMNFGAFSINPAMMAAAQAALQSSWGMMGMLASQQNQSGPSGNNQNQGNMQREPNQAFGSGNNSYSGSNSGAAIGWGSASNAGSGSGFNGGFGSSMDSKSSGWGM

[2] = target: T2, Aralar 1 (SLC25A12) (UniProt O75746); assay: as above
T2 sequence (looked up): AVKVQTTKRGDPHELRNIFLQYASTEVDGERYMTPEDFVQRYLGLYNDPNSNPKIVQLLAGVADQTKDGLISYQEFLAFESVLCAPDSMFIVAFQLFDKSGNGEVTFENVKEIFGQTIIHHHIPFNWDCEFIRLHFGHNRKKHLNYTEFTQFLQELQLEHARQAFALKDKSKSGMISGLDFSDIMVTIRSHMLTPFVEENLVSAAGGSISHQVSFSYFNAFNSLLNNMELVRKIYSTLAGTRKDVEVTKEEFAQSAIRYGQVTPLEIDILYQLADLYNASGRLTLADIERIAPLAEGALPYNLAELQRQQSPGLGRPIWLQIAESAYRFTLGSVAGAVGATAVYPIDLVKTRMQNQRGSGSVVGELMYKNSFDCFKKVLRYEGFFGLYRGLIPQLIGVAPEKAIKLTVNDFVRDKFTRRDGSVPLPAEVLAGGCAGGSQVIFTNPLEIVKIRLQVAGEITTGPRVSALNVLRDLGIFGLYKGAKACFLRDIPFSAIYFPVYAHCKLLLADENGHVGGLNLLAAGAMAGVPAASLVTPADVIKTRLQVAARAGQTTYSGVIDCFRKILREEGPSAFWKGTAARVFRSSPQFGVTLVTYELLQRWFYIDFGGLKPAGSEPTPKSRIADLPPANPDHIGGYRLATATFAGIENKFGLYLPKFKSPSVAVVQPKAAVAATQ

[3] = target: glutamate dehydrogenase (GDH) (UniProt P00367); assay: two-step tag pull-down of DAP-TDP-43, SDS-PAGE, in-gel digestion, LC-MS/MS
[4] = target: T1, Aralar 2 (SLC25A3; citrin); assay: as above
[5] = target: T2, Aralar 1 (SLC25A12); assay: as above
[6] = target: Musashi 2 (UniProt Q96DH6); assay: as above
[7] = target: glutamate dehydrogenase (GDH) (UniProt P00367); assay: co-immunoprecipitation with DAP-TDP-43 at 4, 8 and 24 h after doxycycline induction, Western blot (FIG. 12)
[8] = target: T1, Aralar 2 (SLC25A3; citrin); assay: as above
[9] = target: T2, Aralar 1 (SLC25A12); assay: as above
[10] = target: Musashi 2 (UniProt Q96DH6); assay: as above

Row | binding [1] | binding [2] | binding [3] | binding [4] | binding [5] | binding [6] | binding [7] | binding [8] | binding [9] | binding [10] | Substance
1 | binds | binds | – | – | – | – | – | – | – | – | DAP-tagged RRM1 domain-deficient TDP-43 (from UniProt Q13148 1-414)
2 | binds | binds | – | – | – | – | – | – | – | – | DAP-tagged RRM2 domain-deficient TDP-43 (from UniProt Q13148 1-414)
3 | – | – | binds | binds | binds | binds | binds | binds | binds | binds | DAP-tagged TDP-43 (wild type TAR DNA-binding protein 43) (from UniProt Q13148 1-414)
